Several values for one entry are separate records, joined by “and”; a condition that tells them apart may be missing. Identical values can stand only once. The whole screen tested about 300,000 compounds, of which about 3,700 (1.2%) were called active. The inconclusive results got no clear call from the source; some entries with a clear call stand among them for comparison. The call rests on the fitted dose curve; tested in HEK293 cells. Where the call is inconclusive, the potency comes from a doubtful curve fit.
Test: qHTS for Inhibitors of binding or entry into cells for Lassa Virus; further: nearly all actives have a fitted effect of over 50% in size
Settings: Lassa virus pseudotype entry inhibition, cell reporter; activity change, negative = inhibition: at 37.9 µM (top of the series) unless noted
On the % scale 0 is the no-effect control and ±100 the full control effect; potency means the concentration at half of the fitted maximal effect.

SMILES | Potency | activity change, negative = inhibition
COc1cccc(N2CCN(C(C)C(=O)NC34CC5CC(CC(C5)C3)C4)CC2)c1 (stereo not drawn) | inconclusive: 11.2 µM [inhibitor, single point] | 
O=C(NCc1ccco1)C1CCN(C(=O)Cc2ccccc2)CC1 |  | inactive: -25.7%
O=C(Nc1ccc(F)cc1F)c1ccc(-c2ccccc2)s1 | inconclusive: 7.94 µM [activator, partial curve, poor fit] | 
Cc1cccc(-n2c3nc(=O)[nH]c(=O)c-3cc3cc([N+](=O)[O-])ccc32)c1 | inconclusive: 11.2 µM [inhibitor, partial curve, poor fit] | 
Cc1ccc(-c2nc3ccccc3[nH]2)cc1NC(=S)NC(=O)c1ccccc1Br | inconclusive: 35.5 µM [inhibitor, single point] | 
Nc1nc(Br)c2ccccc2c1-c1ccccc1 |  | inactive: 5.55%
Cc1cc([N+](=O)[O-])ccc1NC(=O)Nc1ccc(F)cc1F | inconclusive: 10 µM [inhibitor, partial curve, poor fit] | 
Cc1cc(NC(=O)C2CC(=O)N(c3ccccc3)C2)no1 (stereo not drawn) | inconclusive: 20 µM [activator, partial curve, poor fit] | 
CCOC(=O)C1(Cc2ccccc2Cl)CCN(S(=O)(=O)N(C)C)CC1 | inconclusive: 22.4 µM [inhibitor, single point] | 
c1ccc2c(-c3[nH]ncc3CNCCCn3ncc4ccccc43)cccc2c1 | inconclusive: 0.891 µM [inhibitor, partial curve, poor fit] | 
COc1ccc(-c2cc(C(F)(F)F)n3nc(-c4ccc(Cl)cc4)cc3n2)cc1OC |  | inactive: 16.5% [at 46.1 µM]
Clc1ccc2nnc(Cl)n2n1 | inconclusive: 35.5 µM [inhibitor, partial curve, poor fit] | 
CCC(=O)Nc1nnc(SCC(=O)c2ccc3c(c2)Cc2ccccc2-3)s1 | active: 6.51 µM | 
CN1C(C(=O)Nc2ccccn2)=C(O)c2ccccc2S1(=O)=O | inconclusive: 5.17 µM [inhibitor, partial curve, poor fit] | 
O=C1CCc2cccc(O)c2N1 | inconclusive: 3.16 µM [activator, single point] | 
NC(N)=Nc1ccc2[nH]c3c(c2c1)C[C@@]1(O)[C@H]2Cc4ccc(O)c5c4[C@@]1(CCN2CC1CC1)[C@H]3O5 | active: 2.31 µM | 
Cc1ccc(-c2c[n+](Cc3ccc(Cl)c(Cl)c3)c3n2CCC3)cc1 | inconclusive: 22.4 µM [inhibitor, single point] | 
O=C(Nc1nc2ccccc2[nH]1)NC1CCCCC1 | active: 11.2 µM | 
COc1cccc(/C=C2\SC(=S)NC2=O)c1OS(=O)(=O)c1ccc(NC(C)=O)cc1 | inconclusive: 31.6 µM [activator, single point] | 
COc1ccc(C2C=C(c3ccc(C)cc3)Nc3ncnn32)cc1 (stereo not drawn) | inconclusive: 35.5 µM [inhibitor, single point] | 
CC(C)(C)c1ccc(OCC(=O)N2CCN(C=O)CC2)cc1 |  | inactive: 5.49%
OCCC1CN(Cc2cc3c(cc2Cl)OCO3)CCN1Cc1ccccc1 (stereo not drawn) |  | inactive: -1.48% [at 46.1 µM]

SMILES | Potency | activity change, negative = inhibition
Cc1ccc(N2CCN(Cc3nnc(-c4ccc5c(c4)OCO5)o3)CC2)c(C)c1 |  | inactive: 11% [at 46.1 µM]
CCCCn1c(CN2CCN(c3cccc(Cl)c3)CC2)nc2c1c(=O)[nH]c(=O)n2C | inconclusive: 29.1 µM [inhibitor, single point] | 
CC1CN(C(=O)Cn2cc(SCC(=O)N3CCOCC3)c3ccccc32)CC(C)O1 (stereo not drawn) | inconclusive: 12.6 µM [activator, single point] | 
CCN(CC(=O)NCc1cccs1)C(=O)c1cccc(S(=O)(=O)Nc2ccc(C)cc2)c1 | inconclusive: 20 µM [inhibitor, partial curve, poor fit] | 
CC(C)C1C(=O)N(Cc2cn(CCC3OCCO3)nn2)CCS(=O)(=O)N1Cc1ccc(-c2ccc(Cl)c(Cl)c2)cc1 (stereo not drawn) | inconclusive: 17.7 µM [inhibitor, partial curve] | 
O=C(NNC(=S)Nc1ccccc1)Nc1ccccc1 | inconclusive: 35.5 µM [inhibitor, single point] | 
COc1ccccc1N(CC(=O)NCCSCc1cccc(C)c1)S(=O)(=O)c1ccccc1 | inconclusive: 11.2 µM [inhibitor, single point] | 
Cc1ccc(SCC(=O)OC(C)C(=O)Nc2ccc(S(N)(=O)=O)cc2)cc1C (stereo not drawn) |  | inactive: -13.3% [at 46.1 µM]
COc1ccccc1N1CCN(C2CCCN(S(=O)(=O)c3cccc(Cl)c3)C2)CC1 (stereo not drawn) | inconclusive: 35.5 µM [inhibitor, single point] | 
CO/N=C/c1ccc(N2CCOCC2)c([N+](=O)[O-])c1 | inconclusive: 0.891 µM [inhibitor, partial curve, poor fit] | 
CN(C(=O)c1cnc(N2CCOCC2)c2ccccc12)c1ccccc1F | inconclusive: 10 µM [inhibitor, partial curve, poor fit] | 
Cc1cc(C)c2c(N=NN3CCOCC3)[nH]nc2n1 |  | inactive: 7.33%
O=C(O)c1cc(Br)ccc1NN=C1CCCCC1 |  | inactive: 4.66%
COC(=O)c1cn(CC(=O)NCc2ccco2)c2ccccc12 |  | inactive: 18%
COC(=O)c1sc(NC(=S)NC(=O)c2ccccc2C)nc1C |  | inactive: -11.6%
O=C(NCCc1cccs1)c1ccc(Cl)c(Cl)c1 |  | inactive: 23.1%
O=C(Nc1cccc(Cl)c1N1CCOCC1)c1cccnc1 | inconclusive: 6.31 µM [inhibitor, single point] | 
Cc1ccc(-n2c(SCC(=O)NCc3ccco3)nc3sc4c(c3c2=O)CC(C)(C)SC4)cc1 | inconclusive: 22.4 µM [inhibitor, single point] | 
COCCOC(=O)C1=C(C)NC(C)=C(C(=O)OC(C)C)C1c1cccc([N+](=O)[O-])c1 (stereo not drawn) | inconclusive: 23.1 µM [inhibitor, partial curve] and inconclusive: 5.17 µM [inhibitor, full curve, poor fit] | 
Cc1cc(N2CCN(C)CC2)ccc1NC(=O)c1cccc(S(=O)(=O)N2CCc3ccccc3C2)c1 | inconclusive: 20 µM [inhibitor, single point] | 
CCCC(=O)N(Cc1cc(=O)[nH]c2ccccc12)c1ccccc1C | inconclusive: 1.26 µM [activator, single point] | 
